Inconclusive means that the source gave no clear call. Such entries were picked first, then a sample of the others. A potency beside an inconclusive call is a rough fit, not a confirmed value. Activity calls are given as the source filed them. Rule for the calls: active = hit-call score of the fitted dose curve at least 0.9, where 1 is the maximum; inconclusive = response in the unintended direction; inactive = score below 0.9.
These molecules were tested against Nuclear receptor subfamily 4 group A member 2 (Homo sapiens) (UniProt P43354) (assay: ATG_NURR1_TRANS: Attagene TRANS-FACTORIAL HepG2 Assay for human Nuclear Receptor Related Protein 1 (NURR1) (AID 2282985)). Conditions: HepG2 Attagene TRANS reporter, mRNA readout.
Procedure: ATG_TRANS is a cell-based, multiplexed-readout assay that uses HepG2, a human liver cell line, with measurements taken at 24 hours after chemical dosing in a 24-well plate.ATG_NURR1_TRANS is one of 30 assay component(s) measured or calculated from the ATG_TRANS assay. It is designed to make measurements of mRNA induction, a form of inducible reporter, as detected with fluorescence intensity signals by Reverse transcription polymerase chain reaction (RT-PCR) and Capillary electrophoresis technology.Data from the assay component ATG_NURR1_TRANS was analyzed into 1 assay endpoint. This assay endpoint, ATG_NURR1_TRANS, was analyzed in the positive analysis fitting direction relative to DMSO as the negative control and baseline of activity. Using a type of inducible reporter, measures of mRNA for gain-of-signal activity can be used to understand the reporter gene at the transcription factor-level as they relate to the gene NR4A2. Furthermore, this assay endpoint can be referred to as a primary readout, because this assay has produced multiple assay endpoints where this one serves a reporter gene function. To generalize the intended target to other relatable targets, this assay endpoint is annotated to the nuclear receptor intended target family, where the subfamily is orphan.
Human liver HepG2 cells are transiently transfected with multiple reporter transcription units (MRTUs) in 6-well plates using FuGene 6 reagent (Roche; 3 ml FuGene/1 mg DNA). The MRTU constructs are regulated by a cis-regulating element (promoter). […] A major difference between the CIS and TRANS system is that in CIS activities of endogenous TFs are measured, whereas the TRANS assay evaluates changes in activities of exogenous, chimeric NR-Gal4 proteins. […] At the end of 24 hour incubation, total RNA was isolated using TriZol reagent (Invitrogen). The isolated RNA is then reverse-transcribed using oligo(dT) primer and Mo-MLV reverse transcriptase (Invitrogen) with DNAse I (Ambion) treatment for 30 min. The one-tenth of the produced cDNA was amplified by PCR using Taq DNA polymerase (Invitrogen) and two reporter sequence-specific primers. The PCR products were fluorescently labeled by primer extension with 6-arboxyfluorescein (6-FAM) 5'-labeled reporter sequence-specific primer (2 min at 95 C, 20 s at 68 C and 10 min at 72 C) and these products were digested with 5U of HpaI (New England Biolabs) for 2h at 37 C. The fragments were purified using Qiaquick PCR columns (Qiagen), analyzed on an ABI 3130xL genetic analyzer (Applied Biosystems) with peak positions identified by using a set of X-rhodamine (ROX)-labeled MapMarker1000 molecular weight standards (BioVentures). The raw capillary electrophoresis data was processed using Attagraph software (Attagene).

By UniProt entry, the sequences of proteins in these tests, tags left out.
UniProt P43354, whole entry, looked up: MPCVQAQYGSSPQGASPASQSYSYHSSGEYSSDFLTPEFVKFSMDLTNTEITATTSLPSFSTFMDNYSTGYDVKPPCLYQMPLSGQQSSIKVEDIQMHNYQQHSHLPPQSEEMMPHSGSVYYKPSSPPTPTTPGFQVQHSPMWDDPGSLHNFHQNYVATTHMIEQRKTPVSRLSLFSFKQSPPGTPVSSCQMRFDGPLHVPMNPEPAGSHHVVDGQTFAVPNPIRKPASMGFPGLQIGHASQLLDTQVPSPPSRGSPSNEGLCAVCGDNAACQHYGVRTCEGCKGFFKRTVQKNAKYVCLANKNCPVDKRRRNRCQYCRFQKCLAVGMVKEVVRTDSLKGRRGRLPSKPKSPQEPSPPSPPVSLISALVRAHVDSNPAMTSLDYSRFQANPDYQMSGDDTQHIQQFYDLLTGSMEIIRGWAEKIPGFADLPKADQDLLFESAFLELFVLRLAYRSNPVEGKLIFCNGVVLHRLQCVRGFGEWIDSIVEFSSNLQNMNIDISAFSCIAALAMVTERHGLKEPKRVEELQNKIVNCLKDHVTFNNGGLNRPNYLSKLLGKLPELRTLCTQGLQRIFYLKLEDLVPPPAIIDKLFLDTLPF

Structure (SMILES) | outcome | AC50
BrCc1cccc(Oc2ccccc2)c1 | – | inconclusive: 100 µM
CC1=CC(=O)CC(C)(C)C1 | – | inconclusive: 60 µM
COc1ccc(-c2coc3cc(O)ccc3c2=O)cc1 | inactive | –
O=C1NS(=O)(=O)c2ccccc21 | inactive | –
CCCCOCCOCCO | inactive | –
C=CC(=O)OCC(Br)CBr (stereo not given) | inactive | –
CC/C=C\CCO | – | inconclusive: 178 µM
CCCCCCCCCCC(CO)CCCCCCCC (stereo not given) | inactive | –
O=CCCc1ccccc1 | – | inconclusive: 171 µM
CC(=O)OCc1ccco1 | – | inconclusive: 100 µM
CC(COCC(C)OC(=O)c1ccccc1)OC(=O)c1ccccc1 (stereo not given) | – | inconclusive: 100 µM
Clc1cccnc1 | – | inconclusive: 100 µM
Nc1cc([N+](=O)[O-])ccc1O | inactive | –
CCCCC(CC)COC(=O)c1ccccc1C(=O)O (stereo not given) | – | inconclusive: 13.5 µM
On1ccccc1=S | – | inconclusive: 0.147 µM

Structure (SMILES) | outcome | AC50
CCC(CO)CO | inactive | –
CC(=O)CCC(=O)O | – | inconclusive: 129 µM
C[C@H]1C[C@@H]2[C@H]([C@@H](O)C[C@@]3(C)[C@H]2CC[C@]3(O)C(=O)CO)[C@@]2(C)C=CC(=O)C=C12 | – | inconclusive: 6.04 µM
CCC(O)=C1C(=O)CC(C(=O)O)CC1=O (stereo not given) | inactive | –
CC(C)C[C@H](NC(=O)OCC1c2ccccc2-c2ccccc21)C(=O)O | – | inconclusive: 1.55 µM
O=C(F)C(F)(F)C(F)(F)C(F)(F)C(=O)F | inactive | –
Cc1oc(-c2ccccc2)nc1CCOc1ccc(C[C@H](Nc2ccccc2C(=O)c2ccccc2)C(=O)O)cc1 | – | active: 19.9 µM
O=C1OCc2ccccc21 | – | inconclusive: 100 µM
Cc1c(-c2cccnc2)c2ccccc2n1CCCCC(=O)O | – | inconclusive: 100 µM
Cc1noc(NS(=O)(=O)c2ccc(N)cc2)c1C | inactive | –
NCCNc1cccc2ccccc12 | inactive | –
CCCCOCC | inactive | –
COCc1nnc(-c2ccc[n+]([O-])c2)n1-c1c(Cl)c(Cl)cc2[nH]c(=O)c(=O)[nH]c12 | – | inconclusive: 0.406 µM
CCCCCCC(=O)c1ccccc1 | – | inconclusive: 100 µM

An excerpt from above in order of molar mass, low to high.
Structure (SMILES) | outcome | AC50
CCC(CO)CO | inactive | –
CC(=O)OCc1ccco1 | – | inconclusive: 100 µM
CCC(O)=C1C(=O)CC(C(=O)O)CC1=O (stereo not given) | inactive | –

From PubChem BioAssay (EPA / NIEHS)
